Laboratory results as given in PubChem BioAssay AID651640 (Broad Institute, 2012).
Among all 350,000 compounds or so, about 6,000 (1.7%) were called active. The inconclusive results got no clear call from the source; some entries with a clear call stand among them for comparison. No stated cut-off is given here; in the data, active means CPE inhibition above about 20% (passing the limit was not always enough); inconclusive means no clear call, values can overlap the other calls; tested in BHK-21 cells.

Assay: protection of cells from dengue 2 killing – plate reader, single concentration, primary screen (AID 651640);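 further: 0% = median of neutral control wells and 100% = median of positive control wells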
Conditions: DENV2-infected cells, cytopathic effect rescue, at 9.99 µM, active compounds read high

Structure (SMILES)	CPE inhibition
NC(=O)CC(NC(=O)Cc1ccc(Cl)cc1)c1ccc(NCc2ccccc2)c([N+](=O)[O-])c1 (configuration not stated)	active: 28.2%
CN1c2ccc(Cl)cc2C(=O)NC1c1ccc([N+](=O)[O-])s1 (configuration not stated)	active: 45.5%
O=C(O)CC1(CC(=O)Nc2ccc(F)c(Cl)c2)CCCCC1	inactive: 3.62%
CCC(=O)NC(C)c1cc(Cl)c2cccnc2c1O (configuration not stated)	inactive: -5.49%
O=C(NCCc1cnc[nH]1)c1ccc(-c2ccccc2)cc1	inactive: 0.34%
Cc1nc(SCC(=O)N2CCCC2=O)nc(C)c1C	inconclusive: 25.8%
Cc1ccc2nc(N(CCCN(C)C)C(=O)c3ccc(S(=O)(=O)N4CCOCC4)cc3)sc2c1	inconclusive: 31.2%
O=S(=O)(c1ccc(Cl)cc1)N1CCN(c2nc(-c3cccs3)nc3ccccc23)CC1	inconclusive: 22.1%
CC(C)CC(N)c1csc(NC(=O)Nc2ccccc2Cc2ccccc2)n1 (configuration not stated)	inconclusive: 22.3%
C[C@@H]1CN([C@H](C)CO)S(=O)(=O)c2ccc(C#CC(C)(C)O)cc2O[C@H]1CN(C)C(=O)C1CCCCC1	inactive: 14.4%
COc1ccc(NC(=O)Nc2ccc3c(c2)C(=O)N([C@H](C)CO)C[C@H](C)[C@H](CN(C)Cc2ccc(C(=O)O)cc2)OCCCC[C@H](C)O3)cc1	inconclusive: 43.9%
CCN1CCc2c(sc(NC(=O)Cc3ccccc3)c2C(N)=O)C1	inconclusive: 30.2%
CC(=O)c1ccc(NC(=O)CSc2nc(=O)n3cccc(C)c3n2)cc1	inconclusive: 43.3%
COc1cccc(C(=O)C(C#N)=C(SC)SC)c1	active: 33.9%
Cc1cn([C@H]2C[C@H](O)[C@@H](CNCc3ccccc3OCCCN3CCOCC3)O2)c(=O)[nH]c1=O	inconclusive: 21%
Nn1c(SCC(=O)Nc2ccc(N3CCOCC3)cc2)nnc1-c1cccc(F)c1	inconclusive: 21.1%
Cc1ccccc1OCC(=O)N/N=C/c1cn(C)c2ccccc12	inconclusive: 40.4%
O=C(Nc1cccc(F)c1)N1CC(=O)N2[C@@H](CO)[C@H](c3ccc(-c4ccc(F)cc4)cc3)[C@@H]2C1	inconclusive: 23.1%
C[C@@]12C(=O)Nc3ccc(Br)cc3C(=O)N1[C@H]1c3cc(Br)ccc3OC[C@@H]1[C@@H]2c1ccccc1	inactive: -14.6%
CC1CCCCN1C(=O)CN1CCN(S(=O)(=O)c2ccc(Br)cc2Cl)CC1 (configuration not stated)	inconclusive: 21.2%
CN1C(=O)c2cc(NS(=O)(=O)c3cccc(F)c3)ccc2OC[C@H]2O[C@@H](CC(=O)O)CC[C@@H]21	active: 71.2%
CC(C)(CC(=O)O)Cc1nc(-c2ccc(Cl)cc2)no1	inconclusive: 44.5%
O=C(Cc1ccccn1)N[C@@H]1CC[C@@H](CC(=O)N2CCCCC2)O[C@H]1CO	inactive: -0.329%
CCO[C@@H]1OC(C(=O)N2CCN(Cc3ccc4c(c3)OCO4)CC2)=C[C@H](c2ccc(Br)cc2)[C@H]1CCCO	inconclusive: 28%
CC=Cc1ccc2n(c1=O)C[C@H]1[C@H](CO)[C@@H](C(=O)NC3CCC3)N(C(=O)C3CC3)[C@@H]21 (mixture of isomers)	inactive: 12.4%
COc1ccccc1CN1C[C@@H](C)[C@H](OC)CN(C)C(=O)c2cc(NC(C)=O)ccc2OC[C@@H]1C	inactive: 3.49%

Structure (SMILES)	CPE inhibition
COc1ccc(S(=O)(=O)N2CCOCC2)cc1NC(=O)c1sccc1C	inconclusive: 20.8%
Cc1ccc(C(=O)N2CCCCC2)cc1S(=O)(=O)N1CCOCC1	inconclusive: 22%
CCCNC(=O)N1C[C@@H]2[C@H](c3ccccc31)[C@H](CO)N2Cc1ccc(OC)cc1	inactive: 2.72%
Cc1onc(-c2ccccc2Cl)c1C(=O)N1CCN(C)CC1	inconclusive: 28.8%
COCCn1c(=O)[nH]c2cc(C(=O)NC3CCCCCC3)ccc2c1=O	inconclusive: 29.4%
Cc1cc2c(C)cc(=O)oc2c2c1NCCC2	inactive: 1.74%
O=C(COc1cccnc1[N+](=O)[O-])NCc1ccccc1	inconclusive: 28.7%
CCOC(=O)C1=C2c3cc(OC)c(OC)cc3CC(C)(C)N2C(=O)C1=O	inactive: -1.26%
C[C@@H]1CN([C@H](C)CO)C(=O)c2cc(C#Cc3ccccc3)cnc2O[C@H]1CN(C)C(=O)c1ccccc1F	inconclusive: 46.5%
COc1ccc(S(=O)(=O)NC2CCN(Cc3ccc(OCCO)cc3)CC2)cc1	inconclusive: 23.5%
CCOC(=O)C1CCN(C(=O)Cn2c(=O)oc3cc(S(=O)(=O)N4CCCC4)ccc32)CC1	inconclusive: 44.2%
Cc1ccc(CN2CCN(Cc3cn(C(C)C)c4ccccc34)CC2CCO)o1 (configuration not stated)	inactive: -4.49%
CCC(=O)N1CC(=O)N2[C@@H](CO)[C@H](c3ccc(-c4ccc(C#N)cc4)cc3)[C@@H]2C1	inconclusive: 20.5%
COc1ccccc1C(=O)Nc1ccc2nc3n(c(=O)c2c1)CCCC3	inconclusive: 25.5%
NNc1nc2c(Cl)ccc(Cl)c2s1	inactive: -11.8%
CCc1ccccc1NC(=O)CN1CCN(C(=O)C(C)NC(=O)c2ccc(Cl)cc2)CC1 (configuration not stated)	inconclusive: 31.4%
CC1=CCC[C@@H]2[C@@](C)(CC/C(C)=C/C(=O)O)[C@H](C)CC[C@@]12C	active: 24.9%
O=C(CN1CCN(S(=O)(=O)c2ccc(F)cc2)CC1)NC1CCCC1	inactive: -9.15%
CCN(CC)S(=O)(=O)c1ccc(C)c(NC(=O)COc2ccc(Br)cc2Cl)c1	active: 52.1%
C[C@H](O)C#Cc1ccc([C@H]2[C@H]3CN(CC4CC4)CCCCN3[C@H]2CO)cc1	inactive: 0.814%
CN1c2ccc(-c3ccccc3F)cc2[C@H]2[C@H](CCN2C(=O)CN2CCOCC2)[C@H]1CO	inconclusive: 44.6%
COc1ccc(NC(=O)Nc2ccc3c(c2)C(=O)N([C@H](C)CO)C[C@@H](C)[C@@H](CN(C)C(=O)Nc2ccc(F)cc2)O3)cc1	inactive: 2.77%
Nc1ccccc1-c1nnn(CC(=O)Nc2ccc3c(c2)OCCO3)n1	inactive: -3.4%
CC(=O)N1Cc2cc(C(=O)NCC(F)(F)F)nc(-c3cccc(-c4cc5ccccc5o4)c3)c2[C@@H]1CCO	inconclusive: 86.6%
CCCC(=O)N(CCN1CCOCC1)c1nc2c(OC)ccc(OC)c2s1	inconclusive: 29.4%
NC(=Nc1ccc(Br)cc1)c1ccccc1	inconclusive: 28.5%

For convenience, some entries already given:
Structure (SMILES)	CPE inhibition
COCCn1c(=O)[nH]c2cc(C(=O)NC3CCCCCC3)ccc2c1=O	inconclusive: 29.4%
Cc1cc2c(C)cc(=O)oc2c2c1NCCC2	inactive: 1.74%
O=C(COc1cccnc1[N+](=O)[O-])NCc1ccccc1	inconclusive: 28.7%
CCOC(=O)C1=C2c3cc(OC)c(OC)cc3CC(C)(C)N2C(=O)C1=O	inactive: -1.26%

Reformatted: entries from further up
Structure (SMILES),CPE inhibition
CN1c2ccc(-c3ccccc3F)cc2[C@H]2[C@H](CCN2C(=O)CN2CCOCC2)[C@H]1CO,inconclusive: 44.6%
COc1ccc(NC(=O)Nc2ccc3c(c2)C(=O)N([C@H](C)CO)C[C@@H](C)[C@@H](CN(C)C(=O)Nc2ccc(F)cc2)O3)cc1,inactive: 2.77%

The listing continues.

Structure (SMILES)	CPE inhibition
CNC[C@H]1Oc2c(NC(=O)Nc3ccc(OC)cc3)cccc2C(=O)N([C@H](C)CO)C[C@@H]1C	inactive: -6.8%
Cc1nnc(SCC(=O)N(CCC#N)c2ccc3c(c2)OCCO3)s1	inconclusive: 21.3%
CCC(=O)N1[C@H](CO)[C@@H](c2ccc(C3=CCCC3)cc2)[C@@H]1CN(C)C(C)=O	inconclusive: 37.6%
COC(=O)c1ccccc1S(=O)(=O)N1CCC(C(=O)OC(C)C(=O)Nc2ccc(NC(C)=O)cc2)CC1 (configuration not stated)	inconclusive: 24.8%
C[C@H](CO)N1C[C@H](C)[C@H](CN(C)CC2CCCCC2)Oc2ccc(NC(=O)Cc3cn(C)c4ccccc34)cc2C1=O	inactive: -10%
COc1ccccc1NC(=O)N1CCCCN2[C@H](CO)[C@@H](c3ccc(C#CC4CCCC4)cc3)[C@@H]2C1	active: 36.1%
CC(C)c1cn(CC[C@H]2CC[C@H](NC(=O)C3CCOCC3)[C@@H](CO)O2)nn1	inactive: -3.2%
Nc1[nH]ncc1-c1ccc(F)cc1	inactive: 0.985%
CN(C)S(=O)(=O)c1cc(NC(=O)CN2CCCc3ccccc32)ccc1Cl	inactive: 0.909%
O=[N+]([O-])c1ccc(N/N=C/c2ccc(O)c(O)c2O)c(S(=O)(=O)N2CCOCC2)c1	inconclusive: 28.4%
O=C(COc1cccc(C(F)(F)F)c1)Nc1ccc2[nH]ncc2c1	inconclusive: 35%
CC(=O)NC(c1ccc(F)c(F)c1)c1nc(-c2cnc3ccccc3c2)cs1 (configuration not stated)	inconclusive: 72.9%
CCOC(=O)c1sc(SC)c2c1CCC/C2=N/OC	inconclusive: 26.4%
CC(C)NC(=O)Nc1ccc2c(c1)C(=O)N([C@H](C)CO)C[C@H](C)[C@@H](CN(C)CC1CC1)OCCCC[C@H](C)O2	inconclusive: 53.7%
C[C@@H]1CCCCO[C@H](CN(C)Cc2ccncc2)[C@H](C)CN([C@@H](C)CO)C(=O)c2cc(NC(=O)CCCN(C)C)ccc2O1	inconclusive: 73.3%
CCCCN(CCCNC(=O)c1ccc(CS(=O)(=O)c2ccc(OC)cc2)o1)Cc1ccccc1	inconclusive: 30.2%
CCCCn1c(N)c(N(CC(C)C)C(=O)CSC(C)C(=O)Nc2cc(C)on2)c(=O)[nH]c1=O (configuration not stated)	inconclusive: 42.2%
CCCC#Cc1ccc([C@@H]2[C@@H](CO)N3CCCCN(CC4CC4)C[C@H]23)cc1	inconclusive: 33%
CC(Sc1nc(N)cc(=O)[nH]1)C(=O)N1CCOCC1 (configuration not stated)	inconclusive: 81.6%
CN(C)C(=O)C[C@@H]1C[C@@H]2c3cc(NC(=O)Nc4ccccc4F)ccc3O[C@@H]2[C@@H](CO)O1	inconclusive: 32%
C[C@@H]1CN([C@@H](C)CO)C(=O)Cc2cc(NC(=O)Cc3ccccc3)ccc2O[C@@H]1CN(C)C(=O)Nc1ccc(C(F)(F)F)cc1	inactive: -14.1%
Nc1nc(SCC(=O)N2CCCC2)[nH]c(=O)c1NC(=O)c1ccco1	inconclusive: 55.1%
Cc1n(Cc2ccccc2)c2ccccc2[n+]1Cc1ccccc1	inactive: -1.77%
O=S(=O)(Nc1ccc2nc(N3CCOCC3)sc2c1)c1ccccc1	inconclusive: 26.3%
CCCN(C1CCS(=O)(=O)C1)S(=O)(=O)c1cc(OC)ccc1OC (configuration not stated)	inconclusive: 36.3%
